# Results from one PubChem assay

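Malaria parasite (P. falciparum) lines kept in red blood cells; parasite DNA is measured by SYBR Green fluorescence after lysis, 72 h after compound addition. Each compound was titrated across a series from about 0.000037 to 29 µM. The number is the fitted AC50, the concentration giving a half-maximal change in signal; a lower value means higher potency, whether the curve shows a decrease or an increase. Calls follow the curve class and fit quality: every row here is inconclusive, covering signal-raising curves and weak, poorly fitted, partial or highest-dose-only inhibition curves.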

Values are in µM. All entries here are filed as inconclusive. These entries are mostly ones the record files as inconclusive; other results of the assay are not listed here. A potency from a partial, single-point or poor curve is only a rough figure.

SMILES: Cc1cc(-c2ccc(N=Nc3c(S(=O)(=O)O)cc4cc(S(=O)(=O)O)cc(N)c4c3O)c(C)c2)ccc1N=Nc1c(S(=O)(=O)O)cc2cc(S(=O)(=O)O)cc(N)c2c1O
setting: CP185
potency (µM): 7.943
remark: inhibitor, single point

SMILES: Cc1cc(-c2ccc(N=Nc3c(S(=O)(=O)O)cc4cc(S(=O)(=O)O)cc(N)c4c3O)c(C)c2)ccc1N=Nc1c(S(=O)(=O)O)cc2cc(S(=O)(=O)O)cc(N)c2c1O
setting: CP335
potency (µM): 19.01
remark: inhibitor, partial curve, poor fit

SMILES: Cc1cc(-c2ccc(N=Nc3c(S(=O)(=O)O)cc4cc(S(=O)(=O)O)cc(N)c4c3O)c(C)c2)ccc1N=Nc1c(S(=O)(=O)O)cc2cc(S(=O)(=O)O)cc(N)c2c1O
setting: CP268
potency (µM): 2.133
remark: inhibitor, partial curve, poor fit

SMILES: Cc1cc(-c2ccc(N=Nc3c(S(=O)(=O)O)cc4cc(S(=O)(=O)O)cc(N)c4c3O)c(C)c2)ccc1N=Nc1c(S(=O)(=O)O)cc2cc(S(=O)(=O)O)cc(N)c2c1O
setting: ICS
potency (µM): 11.22
remark: inhibitor, single point

SMILES: Cc1cc(-c2ccc(N=Nc3c(S(=O)(=O)O)cc4cc(S(=O)(=O)O)cc(N)c4c3O)c(C)c2)ccc1N=Nc1c(S(=O)(=O)O)cc2cc(S(=O)(=O)O)cc(N)c2c1O
setting: CP250
potency (µM): 17.78
remark: inhibitor, single point

SMILES: Cc1cc(-c2ccc(N=Nc3c(S(=O)(=O)O)cc4cc(S(=O)(=O)O)cc(N)c4c3O)c(C)c2)ccc1N=Nc1c(S(=O)(=O)O)cc2cc(S(=O)(=O)O)cc(N)c2c1O
setting: CP260
potency (µM): 12.59
remark: inhibitor, single point

SMILES: Cc1cc(-c2ccc(N=Nc3c(S(=O)(=O)O)cc4cc(S(=O)(=O)O)cc(N)c4c3O)c(C)c2)ccc1N=Nc1c(S(=O)(=O)O)cc2cc(S(=O)(=O)O)cc(N)c2c1O
setting: 7G8
potency (µM): 10
remark: inhibitor, single point

SMILES: Cc1cc(-c2ccc(N=Nc3c(S(=O)(=O)O)cc4cc(S(=O)(=O)O)cc(N)c4c3O)c(C)c2)ccc1N=Nc1c(S(=O)(=O)O)cc2cc(S(=O)(=O)O)cc(N)c2c1O
setting: CP237
potency (µM): 10
remark: inhibitor, single point

SMILES: Cc1cc(-c2ccc(N=Nc3c(S(=O)(=O)O)cc4cc(S(=O)(=O)O)cc(N)c4c3O)c(C)c2)ccc1N=Nc1c(S(=O)(=O)O)cc2cc(S(=O)(=O)O)cc(N)c2c1O
setting: DIV14
potency (µM): 12
remark: inhibitor, partial curve, poor fit

SMILES: Cc1cc(-c2ccc(N=Nc3c(S(=O)(=O)O)cc4cc(S(=O)(=O)O)cc(N)c4c3O)c(C)c2)ccc1N=Nc1c(S(=O)(=O)O)cc2cc(S(=O)(=O)O)cc(N)c2c1O
setting: CP194
potency (µM): 19.01
remark: inhibitor, single point

SMILES: Cc1cc(-c2ccc(N=Nc3c(S(=O)(=O)O)cc4cc(S(=O)(=O)O)cc(N)c4c3O)c(C)c2)ccc1N=Nc1c(S(=O)(=O)O)cc2cc(S(=O)(=O)O)cc(N)c2c1O
setting: P94_40
potency (µM): 10
remark: inhibitor, single point

Once more, the final 2:

* Cc1cc(-c2ccc(N=Nc3c(S(=O)(=O)O)cc4cc(S(=O)(=O)O)cc(N)c4c3O)c(C)c2)ccc1N=Nc1c(S(=O)(=O)O)cc2cc(S(=O)(=O)O)cc(N)c2c1O [CP194] | potency 19.01 µM (inhibitor, single point)
* Cc1cc(-c2ccc(N=Nc3c(S(=O)(=O)O)cc4cc(S(=O)(=O)O)cc(N)c4c3O)c(C)c2)ccc1N=Nc1c(S(=O)(=O)O)cc2cc(S(=O)(=O)O)cc(N)c2c1O [P94_40] | potency 10 µM (inhibitor, single point)

The results are deposited in PubChem (AID504749; NCATS, 2011).